# The campaign covered roughly 320,000 compounds. About 2,100 (0.66%) were called active. Inconclusive results, whose numbers are uncertain, are shown with a selection of clear calls. Calls follow the shape of the dose curve; as a rule, active = well fitted inhibition curve with a large enough effect in the signal ratio, with a control signal flat (not every such curve was filed as active); inconclusive = small, poorly fitted or top-dose-only effect, or effect the other way, or a change in a side signal; inactive = flat fitted curve, though single readings scatter; the % refers to the signal ratio. A potency beside an inconclusive call is a rough fit, not a confirmed value.
# Assay: qHTS Assay for Lipid Storage Modulators in Drosophila S3 Cells
# Settings: BODIPY lipid droplet fluorescence, 18-24 h, cells fed with added oleic acid; lipid storage change, negative = inhibition: at 46.1 µM (top of the series) unless noted
# How it was run: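 Drosophila S3 cells got compounds at several concentrations plus oleic acid (400 uM solution). Laser-scanning cytometry with 488 nm excitation read lipid droplets at 500-530 nm and cells at 575-640 nm. Percent activity was relative to 20 uM Triacsin C.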
# % is scaled to controls: 0 for no effect and ±100 for the full control effect; potency is read from the fitted curve at half-maximal effect.
Structure (SMILES),"lipid storage change, negative = inhibition",Potency
COC(=O)c1ccc2c(=O)n(CC3CCCO3)c(SCC(=O)Nc3ccccc3OC)nc2c1 (stereo not given),inconclusive: 16.6%,–
O=C(Nc1ccc2c(c1)OCCO2)c1cnn(-c2ccccc2)n1,inconclusive: -27.3%,–
C=CCSC1=C(C#N)C(c2cccc(OC)c2)CC(=O)N1 (stereo not given),inconclusive: 19.7%,–
CCC(=O)c1ccc(OCC(=O)O)c(OC)c1,inconclusive: -43.9%,–
CS(=O)(=O)Nc1ccc(S(=O)(=O)Nc2nccs2)cc1,inconclusive: -102%,–
COc1ccccc1N(CC(O)COc1ccccc1)S(=O)(=O)c1ccccc1 (stereo not given),inconclusive: 10.2%,–
COc1ccc(C(C)(C)C)cc1NC(=O)Nc1ccc2c(c1)OCO2,inconclusive: -16.3%,–
COc1ccc(C(=O)Nc2cc(C)nn2-c2cccc(F)c2)cc1,inconclusive: -22.4%,–
Nc1nc(SCC(=O)N2CCCc3ccccc32)[nH]c(=O)c1-c1ccccc1,–,"inconclusive: 20.6 µM [activator, single point]"
O=c1cc(C(F)(F)F)nc(-n2[nH]c3c(c2=O)CCCC3)[nH]1,–,"inconclusive: 16.4 µM [falling, single point]"
O=C(CSc1ccc2nnc(-c3cccnc3)n2n1)Nc1ccccc1,–,active: 0.411 µM
c1ccc2c(c1)Oc1ccccc1S2,–,"inconclusive: 25.9 µM [activator, single point]"
CCOc1ccc(S(=O)(=O)NCc2ccc3c(c2)OCO3)cc1C(=O)O,inconclusive: 15%,–
COc1ccccc1-c1noc2ncnc(Nc3cccc(C)c3C)c12,–,"inconclusive: 29.1 µM [falling, single point]"
CSCCC(NC(=O)c1ccc(Cl)cc1Cl)C(=O)OCC(N)=O (stereo not given),–,"inconclusive: 0.0052 µM [falling, full curve, poor fit]"
CN1CCC2(CC1)NC(=O)NC2=O,–,"inconclusive: 29.1 µM [activator, single point]"
Cc1ccc(C(=O)Nc2ccccc2C(=O)O)cc1S(=O)(=O)Nc1ccccc1,–,"inconclusive: 20.6 µM [falling, single point]"
N#CNC1=NCN(Cc2ccccc2)CN1,inconclusive: 54%,–
O=C(CSCC(=O)N1CCN(c2ccccc2)CC1)Nc1nc(-c2ccc(Cl)s2)cs1,–,"inconclusive: 16.4 µM [falling, single point]"
COc1ccc(-n2ncc3c(N4CCC(C)CC4)ncnc32)cc1,inconclusive: -36.9%,–
C(=C\c1ccccc1)/C=N/Nc1nncc(-c2ccccc2)n1,–,"inconclusive: 0.58 µM [activator, partial curve, poor fit]"
Cc1sc2nc(CN3CCN(c4ccc(O)cc4)CC3)[nH]c(=O)c2c1C,inconclusive: 10.9%,–
COc1cc(O)oc1C=Nc1ccc(Oc2ccccc2)cc1,inconclusive: -126%,–
Cc1ccc(/C=C2/Sc3ccc(C(=O)NCc4ccccn4)cc3NC2=O)cc1,–,"inconclusive: 0.326 µM [activator, partial curve, poor fit]"
O=C(Nc1cc(S(=O)(=O)N2CCOCC2)ccc1N1CCCC1)C1CC1,inconclusive: -26.5%,–

Structure (SMILES),"lipid storage change, negative = inhibition",Potency
Cc1cccc(C(=O)OCN2C(=O)c3ccccc3C2=O)c1[N+](=O)[O-],inconclusive: 41%,–
Cc1ccc(NC(=O)CSCc2n[nH]c(=O)[nH]2)c(Br)c1,inconclusive: -13.2%,–
O=C(Nc1nc2ccc(F)cc2s1)c1cccs1,inconclusive: -24.6%,–
CCOC(=O)c1c(-c2cccs2)csc1N,–,"inconclusive: 0.651 µM [activator, full curve, poor fit]"
Cc1cc(C)c(C(=O)N2CCCC(Nc3ccc(C)c(C)c3)C2)o1 (stereo not given),–,"inconclusive: 1.84 µM [falling, partial curve]"
CN(C(=O)COC(=O)/C=C/c1ccc2ccccc2n1)c1c(N)n(Cc2ccccc2)c(=O)[nH]c1=O,inconclusive: -37.8%,–
COCC(C)NCC(=O)NC(C)CCc1ccccc1 (stereo not given),inconclusive: 15.5%,–
Cc1cc(NC(=O)CCC(=O)N(CC(=O)NC2CCCC2)c2ccc(C)c(F)c2)no1,inconclusive: -18%,–
O=C(O)c1cccnc1C(=O)O,inactive: 2.1%,–
CC(C)C(=O)NNC(=O)c1c(O)c2ccccc2[nH]c1=O,inconclusive: -17%,–
COc1ccc(C(=O)NCC(=O)N/N=C/C(C)=C/c2ccccc2)cc1OC,inconclusive: 22.1%,–
C=CCNC(=S)Nc1cccc([N+](=O)[O-])c1,inconclusive: 13.7%,–
COCCCNC(=O)CN(C1CCCCC1)S(=O)(=O)c1ccc(C)cc1,–,"inconclusive: 23.1 µM [falling, single point]"
CCCc1cc(=O)n2[nH]c(NCc3ccc(OC)c(OC)c3)nc2n1,inconclusive: -6.94%,–
Cc1ccc(C(=O)C2C(c3cccs3)NC(=O)NC2(O)C(F)(F)F)cc1 (stereo not given),inconclusive: -48.7%,–
COc1cc(S(=O)(=O)NCc2ccncc2)c(OC)cc1C,–,"inconclusive: 14.6 µM [activator, partial curve, poor fit]"
Cc1nn(-c2ccc(F)cc2)c(Cl)c1/C=N/NC(=O)c1ccc(O)cc1,inconclusive: -6.22%,–
COc1ccccc1Nc1nc(N2CCOCC2)nc(N2CCOCC2)n1,–,"inconclusive: 18.4 µM [activator, partial curve]"
CCSc1nc(-c2ccc(OC)cc2)n(-c2nc3ccccc3s2)n1,inconclusive: 22.4%,–
CCCC[C@H](CN[C@@H](CNC)[C@H](C)CC)NCCC12CCC(CC1)C2,inconclusive: -21.8%,–
CCOC(=O)c1nnn(-c2nonc2N)c1COc1c(C=O)cccc1OC,inconclusive: 24.5% [cytotoxic],–
CCC(O)CNc1nc(-n2nc(C)cc2C)nc2sc3c(c12)CC(C)(C)OC3 (stereo not given),–,"inconclusive: 1.3 µM [falling, full curve, poor fit]"
CCOC(=O)c1[nH]c(C)c(C(=O)NC2CCCC2)c1C,inconclusive: -1.97%,–
CCOC(=O)N1CCN(c2cc3[nH]c(=S)[nH]c3cc2F)CC1,–,"inconclusive: 9.2 µM [rising, partial curve]"
COc1ccc(S(=O)(=O)N(CC(=O)NC2CC2)C2CCCCC2)cc1Cl,–,"inconclusive: 29.1 µM [activator, single point]"

# Structures from the list above that have a Cl atom (four):
Structure (SMILES),"lipid storage change, negative = inhibition",Potency
CSCCC(NC(=O)c1ccc(Cl)cc1Cl)C(=O)OCC(N)=O (stereo not given),–,"inconclusive: 0.0052 µM [falling, full curve, poor fit]"
O=C(CSCC(=O)N1CCN(c2ccccc2)CC1)Nc1nc(-c2ccc(Cl)s2)cs1,–,"inconclusive: 16.4 µM [falling, single point]"
Cc1nn(-c2ccc(F)cc2)c(Cl)c1/C=N/NC(=O)c1ccc(O)cc1,inconclusive: -6.22%,–
COc1ccc(S(=O)(=O)N(CC(=O)NC2CC2)C2CCCCC2)cc1Cl,–,"inconclusive: 29.1 µM [activator, single point]"

# Source: PubChem BioAssay AID2685 (National Center for Advancing Translational Sciences (NCATS), 2010)
